Primary screen of a compound library

Measurements from “University of Dundee, Small-Polar-MMV Screening Library” (2021), ChEMBL document CHEMBL3988442.

Values are the deposited “Percent Effect”, in %. The controls that fix the scale are not given in the record; negative values are as filed. This is an unselected part of the compounds tested.

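Whole-parasite assay of Trypanosoma brucei over 72 hours; the read-out is not stated. Compounds at 10 µM. Direction is inferred from retests: higher values go with stronger inhibition. Values scatter widely below zero; nearly all retest evidence comes from the higher of the two concentrations used. About 2,700 compounds were tested under these conditions; 0.51% (about 14) showed 50% or more at least once.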

CN(Cc1cccnc1)C1CCCN(Cc2noc(C3CC3)n2)C1 (stereo not shown) read 0.07719%. With COc1cc(C(=O)N2CCCC(n3ccnc3)C2)cc2c1OCCO2 (stereo not shown) the screen gave -10.3%. With CN(Cc1cccc(C(N)=O)c1)CC1CCCN1c1cccnn1 (stereo not shown) the screen gave -35.81%. For O=C(CCOc1ccc(Br)cc1)N1CCN(c2cnccn2)CC1 the result was -18.24%.

For COc1c(C2CCCN2Cc2nc(C3CC3)no2)c(C)nn1C (stereo not shown) the result was -43.37%. CN(Cc1ccc2c(c1)OCO2)C(=O)NCCc1cnn(C)c1 gave -61.77%. Result for CCN1CCOC(CNCc2ccccc2OCc2cccnc2)C1 (stereo not shown) was -32.84%. For CCn1ncc2c1CCCC2NCc1ccc(OC)c(F)c1 (stereo not shown) the result was 1.897%.

With Cc1csc(N2CCCN(C(=O)c3csc(C)n3)CC2)n1 the screen gave -66.61%. Cc1cc(C)n(C2CCCN(C(=O)CCOc3cccc(F)c3)C2)n1 (stereo not shown) read -32.44%. For Cc1cccc(-c2noc(CN3CCCC3Cn3cncn3)n2)c1 (stereo not shown) the result was -58.59%. Result for O=C(c1cnccn1)N1CCN(Cc2cscn2)CC1 was -58.53%.

For COc1ccsc1C(=O)N1CCCN(Cc2cscn2)CC1 the result was -41.36%. For O=C(CCc1nccs1)N1CCCC(n2ccnc2)C1 (stereo not shown) the result was -14.49%. Cn1ccnc1CN1CCCN(C(=O)CC(C2CC2)C2CC2)CC1 read -25.94%. CCc1n[nH]c(C2CN(C(=O)c3cscn3)CCO2)n1 (stereo not shown) read -75.38%.

Result for Cc1ccccc1CCNC(=O)CN1CCCC(Cn2cncn2)C1 (stereo not shown) was -13.09%. For O=C1C(NS(=O)(=O)c2ccc(F)cc2)CCN1Cc1ccccc1 (stereo not shown) the result was -19.36%. For CCN(Cc1ccccc1)Cc1nc2c(cnn2C)c(=O)[nH]1 the result was -73.43%. With COCc1nc(C(=O)N2CCCC2c2ccncc2)cs1 (stereo not shown) the screen gave -3.358%.

O=C(c1cc(F)ccc1F)C1CCN(C(=O)c2cnccn2)CC1 read -33.22%. Cc1nc(C)n(CC2CN(CCCOc3ccc(F)cc3)CCO2)n1 (stereo not shown) read -16.61%. For O=C(NCCn1ccnc1)NCC(c1ccco1)N1CCCC1 (stereo not shown) the result was -20%. With Cn1c(CN2CCCC(Cn3cncn3)C2)nc2ccccc21 (stereo not shown) the screen gave -85.55%.

Result for Cc1cc(CN2CCCC(Cn3cncn3)C2)no1 (stereo not shown) was -55.16%. With CN(C)CC1CN(Cc2coc(-c3cccc(F)c3)n2)CCO1 (stereo not shown) the screen gave -15.39%. For Cc1cc(C)n(C2CCCN(C(=O)c3cc(C(N)=O)cs3)C2)n1 (stereo not shown) the result was -36.58%. CC(Cn1cccn1)NCc1csc(-c2ccsc2)n1 (stereo not shown) gave 7.891%.

Result for CC(O)CN1CCC(CNCc2ccccc2C(F)(F)F)CC1 (stereo not shown) was -15.67%. For O=C(NCCn1nc2ccccn2c1=O)c1scnc1Cl the result was -36.17%. Result for O=C(NCc1csc(Br)c1)N1CCOCC1 was -41.78%. Cc1ccc(CNC(c2ccccc2)c2nccn2C)cc1.Cl (stereo not shown) gave -65.18%.

CC(=O)N1CCN(C(=O)NCc2ccc(Cl)s2)CC1 gave -33.88%. Cc1nc(C)n(CC2CCCN2CCOc2ccc(F)cc2)n1 (stereo not shown) gave -15.1%. Result for CC(C)c1nc(C2CCCN2Cc2nnc(C3CCC3)o2)no1 (stereo not shown) was -24.2%. Result for CN(C(=O)NCc1ccncc1)C1CCCN(c2ccccc2)C1=O (stereo not shown) was -27.33%.

COc1ccc(C(CNC(=O)c2c(C)noc2C)N(C)C)cc1 (stereo not shown) read -52.19%. O=C(CN1CCOC(CNc2cccnn2)C1)NCc1ccccn1 (stereo not shown) gave -48.94%. Result for CCc1nc(CN2CCCC2c2c(C)nn(C)c2OC)no1 (stereo not shown) was -1.45%. OCCn1cc(CN2CCN(CCOc3cccc(F)c3)CC2)cn1 read -77.7%.

CCn1cc(CN2CCCN(C(=O)c3ccc(C)nc3)CC2)cn1 read -32.38%. CCN1CCC(CNC(=O)C2(c3cccc(C)c3)CCCCC2)CC1 gave -19.17%. Cc1ccc(F)cc1S(=O)(=O)Nc1ccc2c(C(=O)O)c[nH]c2c1 read -37.32%. With COc1ccc(C(=O)N2CCCS2(=O)=O)cc1OC the screen gave -18.29%.

CCN1CCC(NC(=O)CN2CCCCC2Cn2cncn2)CC1 (stereo not shown) gave -21.26%. For CS(=O)(=O)NCCCN1CCCC1c1cccc(Br)c1 (stereo not shown) the result was -11.87%. OC1(CN2CCOC(Cn3cccn3)C2)CCCCC1 (stereo not shown) read -50.65%. For Cc1ccc(CNC(=O)Nc2nccs2)cn1 the result was -33.52%.

With COc1cccc(CNCc2ccc(NC(=O)NC(C)C)cc2)c1 the screen gave -31.4%. Cc1ccc(NC2CCN(C(=O)c3cscn3)CC2)nn1 read -35.77%.

Some entries from above, unchanged:

* CC(=O)N1CCN(C(=O)NCc2ccc(Cl)s2)CC1 : -33.88%
* Cn1ccnc1CN1CCCN(C(=O)CC(C2CC2)C2CC2)CC1 : -25.94%
* O=C(CCc1nccs1)N1CCCC(n2ccnc2)C1 (stereo not shown) : -14.49%
* Cc1ccc(CNC(=O)Nc2nccs2)cn1 : -33.52%